Laboratory results: paper PMC9732823, “Discovery of Dual Aβ/Tau Inhibitors and Evaluation of Their Therapeutic Effect on a Drosophila Model of Alzheimer’s Disease” (ACS Chemical Neuroscience, 2022)

Test: PAMPA-BBB assay
Settings: PAMPA-BBB penetration estimation
Excerpt: Thus, to reduce attrition in the development process, the evaluation of BBB penetration at a very early drug discovery stage is of crucial importance. In light of this, the ability of the previously selected compounds to cross the BBB was predicted by a parallel artificial membrane permeability assay (PAMPA)-BBB,[41] a high-throughput technique widely used as an indicator of a molecule’s passive diffusion through the BBB. Six commercially available drugs were used to validate the assay.
PAMPA (the parallel artificial membrane permeability assay) is a high-throughput screening tool applicable for the prediction of the passive transport of potential drugs across the BBB.[41] […] The concentrations of the tested compound in both donor and the acceptor wells were assessed after 3, 4, 5, and 6 h of incubation in quadruplicate using a UV plate reader, Synergy HT (Biotek) at the maximum absorption wavelength of each compound (n=3). In addition to that, solution of the theoretical compound concentration, simulating the equilibrium state established if the membrane were ideally permeable, was prepared and assessed as well. The concentrations of the compounds in the donor and acceptor wells and the equilibrium concentration were calculated from the standard curve and expressed as the permeability (Pe) according to the equation[41] […]

In the case of `NS(=O)(=O)c1cc(C(=O)O)c(NCc2ccco2)cc1Cl` [Furosemide, reference compound], the “CNS (+/-)” value is reported as “CNS - (CNS - (low BBB permeation predicted): Pe (×10-6 cm s-1) < 2.0)”.
